These results are taken from PMC8042123.

Protein sequences, listed by entry. Tags and fused reporters are not part of them. Lines headed by an entry give the natural chain unless they say otherwise; changes in a name come on top.
UniProt Q96524: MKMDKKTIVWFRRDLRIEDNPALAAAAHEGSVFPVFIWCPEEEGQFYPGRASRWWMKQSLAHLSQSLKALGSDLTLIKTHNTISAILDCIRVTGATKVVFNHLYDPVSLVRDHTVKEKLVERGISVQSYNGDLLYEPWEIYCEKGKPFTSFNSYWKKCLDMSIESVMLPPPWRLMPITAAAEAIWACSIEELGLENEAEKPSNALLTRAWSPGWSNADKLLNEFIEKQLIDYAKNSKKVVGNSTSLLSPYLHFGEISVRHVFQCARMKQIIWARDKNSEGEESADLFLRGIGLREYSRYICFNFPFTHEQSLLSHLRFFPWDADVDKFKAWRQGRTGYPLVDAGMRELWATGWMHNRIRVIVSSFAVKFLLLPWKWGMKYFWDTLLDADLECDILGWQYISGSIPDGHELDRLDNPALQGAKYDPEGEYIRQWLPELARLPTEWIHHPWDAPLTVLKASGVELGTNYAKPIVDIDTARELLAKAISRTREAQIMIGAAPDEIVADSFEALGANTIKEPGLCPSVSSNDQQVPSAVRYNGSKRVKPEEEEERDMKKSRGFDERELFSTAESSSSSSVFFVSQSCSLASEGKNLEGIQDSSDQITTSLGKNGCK
UniProt O82343: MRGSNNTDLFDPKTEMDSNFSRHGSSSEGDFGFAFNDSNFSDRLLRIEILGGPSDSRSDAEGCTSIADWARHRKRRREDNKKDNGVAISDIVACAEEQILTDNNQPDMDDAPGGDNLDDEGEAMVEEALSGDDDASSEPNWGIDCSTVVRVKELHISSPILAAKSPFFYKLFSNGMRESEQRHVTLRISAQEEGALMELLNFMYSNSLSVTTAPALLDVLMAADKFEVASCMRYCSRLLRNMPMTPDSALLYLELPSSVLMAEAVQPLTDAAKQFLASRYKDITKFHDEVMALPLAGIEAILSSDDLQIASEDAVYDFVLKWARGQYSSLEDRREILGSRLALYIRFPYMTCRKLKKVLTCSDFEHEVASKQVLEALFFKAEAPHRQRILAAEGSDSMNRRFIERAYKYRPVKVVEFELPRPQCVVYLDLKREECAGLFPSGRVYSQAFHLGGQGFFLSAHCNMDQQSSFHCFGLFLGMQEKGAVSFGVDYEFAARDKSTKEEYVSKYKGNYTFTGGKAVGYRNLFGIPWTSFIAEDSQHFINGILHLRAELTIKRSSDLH

For this experiment, the target named is GFP-CRY2 (Arabidopsis thaliana) (UniProt Q96524). The experiment is described as follows: affinity purification with mass spectrometry; IP-MS of CRY2 complexomes from transgenic Arabidopsis plants overexpressing GFP-CRY2; blue light against dark.

No constants are given. Whether binding was seen depends on the method and setting. Binding seen in cells or lysates may run through a third protein. Here binding means that the protein was enriched with, or labelled near, the bait; the list need not be complete.

Turning to “LRB1 (Light-Response Bric-a-Brack/Tramtrack/Broad 1) (from UniProt O82343)”, the binding result is “binds”.
